Results from US7816323B2, “Methods of using corticotropin-releasing factor for the use of the treatment of cancer” (priority 2008, dated 2010).
For at least one compound, name, drawing or mass did not settle the structure.

Test system: human glioblastoma cell line U87 Flue
Experiment: Brain tumor-bearing SCID mice (U87 Flue glioblastoma), 80-day survival and tumor progression study
Conditions: chemotherapeutic agents; TMZ: all mice but one

## Cn1nnc2c(C(N)=O)ncn2c1=O [TMZ, reference compound]
  brain tumor growth / response to treatment (photon emission): responded to the treatment
